For experiment [1], the target named is N-terminally HA-tagged human progranulin overexpressed in HEK293 cells (human) (UniProt P28799). The experiment can be described thus: co-IP.
Experiment [2] concerns the target human progranulin overexpressed in HEK293 cells (human) (UniProt P28799). Put plainly: co-IP.

Amino acid sequences for entries named in this document (tags omitted). Residues count along the entry.
UniProt P28799, residues 18-593: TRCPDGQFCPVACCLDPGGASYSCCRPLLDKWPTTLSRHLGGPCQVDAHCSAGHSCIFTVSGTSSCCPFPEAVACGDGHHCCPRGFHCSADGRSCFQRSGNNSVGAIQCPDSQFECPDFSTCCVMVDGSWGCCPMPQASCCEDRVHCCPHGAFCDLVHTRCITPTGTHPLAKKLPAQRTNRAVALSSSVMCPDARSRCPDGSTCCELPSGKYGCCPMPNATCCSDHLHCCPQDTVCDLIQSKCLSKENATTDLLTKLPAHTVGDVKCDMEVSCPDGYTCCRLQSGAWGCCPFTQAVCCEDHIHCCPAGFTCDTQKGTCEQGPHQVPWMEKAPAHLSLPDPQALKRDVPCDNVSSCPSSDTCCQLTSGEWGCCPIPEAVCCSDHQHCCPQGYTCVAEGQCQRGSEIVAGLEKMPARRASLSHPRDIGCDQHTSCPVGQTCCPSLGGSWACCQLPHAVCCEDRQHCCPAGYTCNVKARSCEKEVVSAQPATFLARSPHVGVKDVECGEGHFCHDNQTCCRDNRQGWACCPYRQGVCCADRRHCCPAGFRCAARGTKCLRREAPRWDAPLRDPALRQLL
UniProt Q96PQ0, residues 51-1159: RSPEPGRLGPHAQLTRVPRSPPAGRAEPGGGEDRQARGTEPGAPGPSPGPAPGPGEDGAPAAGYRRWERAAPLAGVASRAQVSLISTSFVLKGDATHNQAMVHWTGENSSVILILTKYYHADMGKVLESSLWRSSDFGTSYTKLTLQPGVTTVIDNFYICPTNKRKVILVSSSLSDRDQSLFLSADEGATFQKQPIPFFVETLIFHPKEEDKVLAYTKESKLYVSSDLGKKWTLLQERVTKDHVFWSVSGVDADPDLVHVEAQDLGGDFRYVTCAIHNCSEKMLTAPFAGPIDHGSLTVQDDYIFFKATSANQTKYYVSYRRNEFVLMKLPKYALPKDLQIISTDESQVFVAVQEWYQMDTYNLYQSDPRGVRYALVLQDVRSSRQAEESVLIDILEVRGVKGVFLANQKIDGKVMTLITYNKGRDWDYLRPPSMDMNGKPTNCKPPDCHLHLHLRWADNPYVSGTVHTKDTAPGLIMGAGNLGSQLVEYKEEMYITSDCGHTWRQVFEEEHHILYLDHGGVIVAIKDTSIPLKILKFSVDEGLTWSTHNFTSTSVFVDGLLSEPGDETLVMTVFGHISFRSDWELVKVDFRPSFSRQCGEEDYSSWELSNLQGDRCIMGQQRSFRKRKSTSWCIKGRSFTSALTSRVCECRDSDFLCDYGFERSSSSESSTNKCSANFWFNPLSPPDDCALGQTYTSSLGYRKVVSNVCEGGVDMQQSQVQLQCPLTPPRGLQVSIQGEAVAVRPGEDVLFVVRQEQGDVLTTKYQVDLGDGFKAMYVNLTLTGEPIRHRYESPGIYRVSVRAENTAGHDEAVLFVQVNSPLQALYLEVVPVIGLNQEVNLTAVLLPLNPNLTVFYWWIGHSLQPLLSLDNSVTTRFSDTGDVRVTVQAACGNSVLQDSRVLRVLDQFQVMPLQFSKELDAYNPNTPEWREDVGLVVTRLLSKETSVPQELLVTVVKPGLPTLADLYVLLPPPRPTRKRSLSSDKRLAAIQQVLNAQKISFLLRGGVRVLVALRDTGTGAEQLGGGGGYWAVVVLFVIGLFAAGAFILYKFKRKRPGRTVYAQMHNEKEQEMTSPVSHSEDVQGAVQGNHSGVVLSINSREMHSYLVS

Results are given in words; binding and its absence hold for the method and conditions named. Binding seen in cells or lysates may run through a third protein. Some binding calls cover weakened binding; strength is not graded here.

On to “proform of human SorCS2 (from the full-length construct in HEK293 cells) (from UniProt Q96PQ0 51-1159) (receptor)”, for which the binding result in experiment [1] and in experiment [2] was “binds” throughout.

Source of the values: publication doi:10.1101/2023.02.08.527602 (bioRxiv, 2023).
